According to PubChem BioAssay AID1671190 (National Center for Advancing Translational Sciences (NCATS), 2021):
About 6,100 (1.1%) of roughly 580,000 compounds were called active. Inconclusive means that the source gave no clear call. Such entries were picked first, then a sample of the others. Calls follow the shape of the dose curve; as a rule, active = well fitted inhibition curve with a large enough effect; inconclusive = small, poorly fitted or top-dose-only effect, or another doubt; inactive = no such curve, though single readings can be large or run the other way. Potencies beside an inconclusive call are fits to weak or partial responses and may not hold up.

Amino acid sequences for entries named in this document (tags omitted).
UniProt P18054, whole entry, looked up: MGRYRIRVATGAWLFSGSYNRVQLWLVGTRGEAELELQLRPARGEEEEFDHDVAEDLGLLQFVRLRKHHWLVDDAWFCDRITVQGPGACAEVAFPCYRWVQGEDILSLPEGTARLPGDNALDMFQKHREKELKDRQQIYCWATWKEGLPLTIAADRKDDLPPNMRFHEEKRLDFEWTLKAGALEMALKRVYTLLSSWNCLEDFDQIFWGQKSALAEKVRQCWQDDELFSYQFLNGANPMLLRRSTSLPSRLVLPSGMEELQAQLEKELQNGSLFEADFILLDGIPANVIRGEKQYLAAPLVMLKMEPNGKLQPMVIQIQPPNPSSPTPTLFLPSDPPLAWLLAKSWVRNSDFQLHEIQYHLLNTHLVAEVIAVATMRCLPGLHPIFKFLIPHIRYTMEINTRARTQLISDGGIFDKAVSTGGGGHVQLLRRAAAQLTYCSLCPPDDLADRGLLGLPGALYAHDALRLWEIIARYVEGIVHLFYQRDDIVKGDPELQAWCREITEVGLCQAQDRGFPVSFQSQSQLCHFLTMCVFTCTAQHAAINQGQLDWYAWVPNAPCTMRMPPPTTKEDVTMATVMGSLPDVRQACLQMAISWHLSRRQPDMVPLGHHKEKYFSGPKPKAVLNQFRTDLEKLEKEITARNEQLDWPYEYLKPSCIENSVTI

The compounds below were run against Polyunsaturated fatty acid lipoxygenase ALOX12 (Homo sapiens) (UniProt P18054) (assay: Primary qHTS assay for inhibitors of human arachidonate 12S-lipoxygenase (ALOX12): Round 2). Conditions: purified 12hLO, xylenol orange hydroperoxide absorbance; activity change, negative = inhibition: at 108 µM (top of the series) unless noted.
Outline: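 Purified human 12hLO (150 nM final) in 25 mM Hepes, 0.01% Triton X-100, pH 7.0 was preincubated 15 min at room temperature with compound. Then 40 uM arachidonic acid was added, 30 min. Hydroperoxide was read by Fe-XO absorbance ratio 573/405 nm.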
% is scaled to controls: 0 for no effect and ±100 for the full control effect; potency is read from the fitted curve at half-maximal effect.

| SMILES | Potency | activity change, negative = inhibition |
| --- | --- | --- |
| CCOC(=O)C1CCN(C(=O)Cc2cccc3ccccc23)CC1 | inconclusive: 50.1 µM [inhibitor, partial curve, poor fit] | – |
| Cc1cc(Nc2cccc(F)c2)nc(NCc2ccccc2)n1 | inconclusive: 50.1 µM [inhibitor, partial curve, poor fit] | – |
| Cc1ccc(S(=O)(=O)N2CC3(C)CN(S(=O)(=O)c4ccc(C)cc4)CC(C)(C2)C3O)cc1 (stereo not given) | inconclusive: 1.58 µM [inhibitor, full curve, poor fit] | – |
| COC(=O)c1ccc(C2C(c3ccccc3)=C(O)C(=O)N2Cc2ccc(F)cc2)cc1 (stereo not given) | inconclusive: 14.1 µM [inhibitor, full curve, poor fit] | – |
| Cc1cccc2c(=O)n3c(cc12)-c1[nH]c2ccccc2c1CC3 | inconclusive: 6.31 µM [inhibitor, full curve, poor fit] | – |
| C=CCNC(=S)NNC(=O)c1ccc(CSc2nc(C)cc(C)n2)cc1 | – | inactive: -5.76% |
| Cc1nc(N)sc1-c1csc(N(C)c2ccc(O)cc2)n1 | inconclusive: 22.4 µM [inhibitor, full curve, poor fit] | – |
| CCOc1ccc(CC(=O)N2CCC(n3cc(-c4nc(-c5ccccc5)no4)nn3)C2)cc1 (stereo not given) | – | inactive: 5.34% |
| C[C@H](C(=O)NCCN1CCOCC1)C1CC[C@@]2(C)Cc3sc(CSc4ccccc4)nc3[C@@H](C)[C@@H]2[C@H]1O (stereo not given in full) | – | inactive: 13.2% |
| CCOc1ccc(Br)cc1C1C(C(=O)Nc2ccccc2OC)=C(C)Nc2nnnn21 (stereo not given) | inconclusive: 112 µM [inhibitor, partial curve, poor fit] | – |
| Cc1ccc(C(=O)N2CCCC3(C2)NC(=O)N(Cc2ccc(Cl)cc2)C3=O)cc1F (stereo not given) | – | inactive: -8.77% |
| CCc1ccccc1NC(=O)c1nnn(CC(=O)Nc2cccc(C)c2C)c1N | inconclusive: 50.1 µM [inhibitor, partial curve, poor fit] | – |
| CC(C)NC(=O)C(=O)NNC(=O)C12CC3CC(CC(C3)C1)C2 | inconclusive: 3.16 µM [inhibitor, full curve, poor fit] | – |
| Cc1ccc(-n2nc3c(=O)n(CC(=O)NCCc4ccc(Cl)cc4)nc(C)c3c2C)cc1 | – | inactive: -3.25% |
| COCCNC(=O)[C@@H](C)C1CC[C@@]2(C)CC[C@H](NC(=O)COc3ccccc3)[C@@H](C)[C@@H]2[C@H]1O (stereo not given in full) | inconclusive: 56.2 µM [inhibitor, partial curve, poor fit] | – |
| Cc1nc2c(sc3nc(N4CCOCC4)c4c(c32)CC(C)(C)OC4)c(-c2ccccc2)c1C(=O)O | inconclusive: 63.1 µM [inhibitor, partial curve, poor fit] | – |
| COc1ccc(N2CCN(CC(O)COc3ccc(C)c(C)c3)CC2)cc1 (stereo not given) | inconclusive: 44.7 µM [inhibitor, partial curve, poor fit] | – |
| CC(=O)N1c2ccc(S(=O)(=O)NCCc3cccc(C)c3)cc2CC1C (stereo not given) | inconclusive: 63.1 µM [inhibitor, partial curve, poor fit] | – |
| COCc1nnc(NC(=O)CS(=O)(=O)Cc2ccccc2)s1 | inconclusive: 17.8 µM [inhibitor, partial curve, poor fit] | – |
| CCOc1ccc2oc(=O)cc(CN3CCN(Cc4ccccc4)CC3)c2c1 | inconclusive: 100 µM [inhibitor, partial curve, poor fit] | – |
| O=C1CCCN1CC(=O)N1CCCC(c2nc3ccccc3o2)C1 (stereo not given) | – | inactive: 44.8% |
| Cc1cccc(NN=C2c3ccccc3-c3ccccc32)c1 | – | inactive: -21.7% |

| SMILES | Potency | activity change, negative = inhibition |
| --- | --- | --- |
| Cc1csc(NC(=O)c2cc(-c3ccco3)nc3ccccc23)n1 | active: 25.1 µM | – |
| CN(C)C[C@@H]1CN(c2ncccn2)C[C@H]1NC(=O)c1nn(C)c2ccccc12 | – | inactive: 56.2% |
| CCOC(=O)C1(Cc2ccc(Cl)cc2)CCN(C(=O)c2cc(C)nc(C)n2)CC1 | inconclusive: 44.7 µM [inhibitor, full curve, poor fit] | – |
| CCCCN(C(=O)Cc1cccc(F)c1)c1c(N)n(CCC)c(=O)[nH]c1=O | inconclusive: 50.1 µM [inhibitor, partial curve, poor fit] | – |
| COc1ccc(OC)c(NC(=O)CSCc2ccc(Cl)c(Cl)c2)c1 | – | inactive: 3.16% |
| O=C1NC(=O)/C(=C/c2ccccn2)S1 | inconclusive: 31.6 µM [inhibitor, single point] | – |
| O=C(NCC12CC3CC(CC(C3)C1)C2)Nc1ccc(Cl)cc1F | inconclusive: 35.5 µM [inhibitor, partial curve, poor fit] | – |
| Cc1nc2c(C)cccn2c1/C(O)=C1\C(=O)C(=O)N(CCN2CCOCC2)C1c1ccccc1F (stereo not given) | inconclusive: 6.31 µM [inhibitor, full curve] | – |
| COc1ccc(CC2(CO)CCN(CC3=CC[C@H]4C[C@@H]3C4(C)C)CC2)cc1 | inconclusive: 89.1 µM [inhibitor, single point] | – |
| CC(C)CN1CC(COc2ccc3ccccc3c2)Oc2ccnc(-c3ccc(OCC(=O)O)cc3)c2C1=O (stereo not given) | inconclusive: 20 µM [inhibitor, full curve, poor fit] | – |
| COc1cccc(-c2noc(CCC(=O)NC3CCCC3)n2)c1 | – | inactive: -3.11% |
| Cc1cc(C)c2[nH]c(CN3CCC(N)C3)cc(=O)c2c1 (stereo not given) | inconclusive: 22.4 µM [inhibitor, single point] | – |
| CCCCCC1CCC(c2ccc(C(=O)CCN(C)C)cc2)CC1 (stereo not given) | active: 7.94 µM | – |
| Cc1ccccc1Nc1nnc(-c2ccc(C)c(S(=O)(=O)NCCO)c2)c2ccccc12 | – | inactive: 3.21% |
| CCCN1C(=O)c2ccc(C(=O)NCc3ccco3)cc2C1=O | inconclusive: 17.8 µM [inhibitor, partial curve, poor fit] | – |
| COc1ccccc1N1CCN(C(c2ccccc2)c2nnnn2CCc2ccccc2)CC1 (stereo not given) | inconclusive: 39.8 µM [inhibitor, partial curve, poor fit] | – |
| COc1ccc(NC(=O)c2cc(=O)[nH]c3ccccc23)cc1 | inactive | – |
| O=C(COc1ccccc1F)Nc1ccc2c(=O)c3cccc(F)c3oc2c1 | inconclusive: 63.1 µM [inhibitor, partial curve, poor fit] | – |
| COc1cc(CNCc2ccccn2)ccc1OCC(N)=O | – | inactive: 6.12% [at 57.4 µM] |
| O=C(CNc1cc(S(=O)(=O)N2CCOCC2)ccc1NCC1CCCO1)Nc1ccccc1F (stereo not given) | inconclusive: 7.94 µM [inhibitor, full curve, poor fit] | – |
| O=C(NC1CC1)C1=C[C@@H](c2ccc(Br)cc2)C[C@@H](OCc2ccc(CO)cc2)O1 | inconclusive: 50.1 µM [inhibitor, partial curve, poor fit] | – |
| CN(C)CCn1c(=S)[nH]c2ccc(Cl)cc2c1=O | inconclusive: 35.5 µM [inhibitor, partial curve, poor fit] | – |

A second format for part of the listing above:
SMILES	Potency	activity change, negative = inhibition
COc1ccc(N2CCN(CC(O)COc3ccc(C)c(C)c3)CC2)cc1 (stereo not given)	inconclusive: 44.7 µM [inhibitor, partial curve, poor fit]	–
CC(=O)N1c2ccc(S(=O)(=O)NCCc3cccc(C)c3)cc2CC1C (stereo not given)	inconclusive: 63.1 µM [inhibitor, partial curve, poor fit]	–
COCc1nnc(NC(=O)CS(=O)(=O)Cc2ccccc2)s1	inconclusive: 17.8 µM [inhibitor, partial curve, poor fit]	–
CCOc1ccc2oc(=O)cc(CN3CCN(Cc4ccccc4)CC3)c2c1	inconclusive: 100 µM [inhibitor, partial curve, poor fit]	–
O=C1CCCN1CC(=O)N1CCCC(c2nc3ccccc3o2)C1 (stereo not given)	–	inactive: 44.8%
Cc1cccc(NN=C2c3ccccc3-c3ccccc32)c1	–	inactive: -21.7%
Cc1csc(NC(=O)c2cc(-c3ccco3)nc3ccccc23)n1	active: 25.1 µM	–
CN(C)C[C@@H]1CN(c2ncccn2)C[C@H]1NC(=O)c1nn(C)c2ccccc12	–	inactive: 56.2%
CCOC(=O)C1(Cc2ccc(Cl)cc2)CCN(C(=O)c2cc(C)nc(C)n2)CC1	inconclusive: 44.7 µM [inhibitor, full curve, poor fit]	–
CCCCN(C(=O)Cc1cccc(F)c1)c1c(N)n(CCC)c(=O)[nH]c1=O	inconclusive: 50.1 µM [inhibitor, partial curve, poor fit]	–
COc1ccc(OC)c(NC(=O)CSCc2ccc(Cl)c(Cl)c2)c1	–	inactive: 3.16%
O=C1NC(=O)/C(=C/c2ccccn2)S1	inconclusive: 31.6 µM [inhibitor, single point]	–
O=C(NCC12CC3CC(CC(C3)C1)C2)Nc1ccc(Cl)cc1F	inconclusive: 35.5 µM [inhibitor, partial curve, poor fit]	–
Cc1nc2c(C)cccn2c1/C(O)=C1\C(=O)C(=O)N(CCN2CCOCC2)C1c1ccccc1F (stereo not given)	inconclusive: 6.31 µM [inhibitor, full curve]	–

Remaining list, next part

| SMILES | Potency | activity change, negative = inhibition |
| --- | --- | --- |
| CC(=O)OCCCCON1C(=O)c2ccccc2C1=O | inconclusive: 126 µM [inhibitor, single point] | – |
| CN(C1CCCCC1)S(=O)(=O)c1ccc(NC(=S)NC(=O)c2cccs2)cc1 | inconclusive: 10 µM [inhibitor, full curve, poor fit] | – |
| Cc1c(NCc2ccncc2)cccc1C(=O)O | inconclusive: 35.5 µM [inhibitor, partial curve, poor fit] | – |
| COc1ccccc1-c1nnc(SC/C(O)=C(\C#N)c2nc3ccccc3[nH]2)n1C1CCCCC1 | – | inactive: -0.977% |
| COc1cc2c(cc1OC)-c1nnnn1C(C)(C)C2 | – | inactive: 16.3% |
| Cc1cc(N2CCC(C)CC2)nc2cccc(O)c12 | inconclusive: 39.8 µM [inhibitor, partial curve, poor fit] | – |
| Cc1cc(C)cc(N(CC(=O)Nc2ccc(C(F)(F)F)cc2)S(=O)(=O)c2c(C)[nH]c(=O)[nH]c2=O)c1 | inconclusive: 79.4 µM [inhibitor, partial curve, poor fit] | – |
| Cc1coc2cc3o/c(=N/O)c(Cc4ccccc4)c(C)c3cc12 | inconclusive: 20 µM [inhibitor, partial curve, poor fit] | – |
| C/C(=C\C(=S)Nc1ccccc1)Nc1cccc2ccccc12 | inconclusive: 39.8 µM [inhibitor, partial curve, poor fit] | – |
| CCCC(C)NC(=O)CN1CCN(c2cccc(C(F)(F)F)c2)CC1 (stereo not given) | inconclusive: 141 µM [inhibitor, single point] | – |
| CNC(=S)NNC(=O)C1CCCCC1 | – | inactive: -2.38% |
| CCN(C(=O)CN1C(=O)S/C(=C\c2ccccc2OC)C1=O)C1CCS(=O)(=O)C1 (stereo not given) | – | inactive: -25.4% |
| Cc1csc(=O)n1CCC(=O)OCC(=O)NNC(=O)c1ccc(Cl)cc1 | inconclusive: 44.7 µM [inhibitor, partial curve, poor fit] | – |
| COc1cc(/C=C2/C(=O)NN(c3ccc(F)cc3)C2=O)cc(Cl)c1O | inconclusive: 50.1 µM [inhibitor, partial curve, poor fit] | – |
| CCn1nc(CC(C)C)cc1C(=O)N(C)C1CCCN(C2Cc3ccccc3C2)C1 (stereo not given) | inconclusive: 10 µM [inhibitor, full curve, poor fit] | – |
| C=Cc1ccc2c(c1)N(C)C(=C)S2 | inconclusive: 14.1 µM [inhibitor, partial curve] | – |
| CCCCn1c(N)c(N(CCC(C)C)C(=O)COC(=O)c2ccc(CC)cc2)c(=O)[nH]c1=O | inconclusive: 158 µM [inhibitor, single point] | – |
| O=C(CC1CC1)NC1CCCc2nc(-c3ccccc3)ncc21 (stereo not given) | – | inactive: 64.1% |
| CC(/C=N/Nc1nncc(=O)[nH]1)=C\c1ccccc1 | – | inactive: 12.4% |
| CN1C[C@H](NC(=O)NC2(c3ccccc3)CCOCC2)CCC[C@@H](C(=O)NCc2cc(F)cc(F)c2)CC1=O | active: 22.4 µM | – |
| CNc1oc(/C=C/c2ccc(OC)c(OC)c2)nc1C#N | inconclusive: 25.1 µM [inhibitor, partial curve, poor fit] | – |
